Measured values as given in US5936065A (Cytel Corporation, priority 1995, dated 1999).

Test: general procedure: Fmoc solid-phase peptide synthesis; Rink amide MBHA resin; DIC/HOBt
Conditions: whole synthesis, scale 5 mmoles

N-phenylacetyl-Leu-Asp-Phe-D-Pro-NH2
isolated mass: 1.8 g
